Screen size: about 300,000 compounds; about 5,400 (1.8%) were called active. The shares of active, inactive and inconclusive entries below differ from those in the screen. Calls follow the shape of the full dose curve; tested in HEK293 cells. A potency beside an inconclusive call is a rough fit, not a confirmed value.
Assay: qHTS for inhibitors of binding or entry into cells for Marburg Virus
Details: Marburg virus pseudotyped entry inhibition, cell reporter; activity change, negative = inhibition: at 37.8 µM (top of the series) unless noted
% is scaled to controls: 0 for no effect and ±100 for the full control effect; potency is read from the fitted curve at half-maximal effect.

| SMILES | Potency | activity change, negative = inhibition |
| --- | --- | --- |
| COc1ccc(/C=N/NC(=O)COc2ccccc2-c2ccccc2)cc1 | inconclusive: 20 µM [inhibitor, partial curve, poor fit] |  |
| CCc1ccc2nc(NC(=O)C3CSC4(C)CCC(=O)N34)sc2c1 (centres undefined) | inconclusive: 35.5 µM [inhibitor, single point] |  |
| CC(C)c1ccccc1NC(=O)Cn1c(/C=C/c2ccccc2)nc2ccccc21 |  | inactive: 13.9% [at 46.1 µM] |
| CC(C)c1oc(=O)cc2c1[C@@H](O)[C@H]1OC(=O)[C@@]3(C)C[C@@H](O)[C@@H](O)[C@@]2(C)C13 (some centres undefined) | active: 3.26 µM |  |
| COCOCCn1cc(CN2CCS(=O)(=O)N(Cc3ccc(-c4ccccc4)cc3)C(CC(C)C)C2=O)nn1 (centres undefined) | inconclusive: 35.3 µM [inhibitor, single point] |  |
| Cc1cc(C)c(NC2=NS(=O)(=O)c3ccccc32)c(C)c1 |  | inactive: -0.579% |
| Cc1ccc(CCNC(=O)c2nnn(-c3cc(C)cc(C)c3)c2N)cc1 | inconclusive: 5.01 µM [inhibitor, partial curve] |  |
| CCC1CCCCN1C(=O)CCc1nnc(C2CCCCC2)o1 (centres undefined) | inconclusive: 3.98 µM [activator, full curve] |  |
| COc1cc(CN2CCN(Cc3cccc(OC)c3OC)CC2)cc(OC)c1 | inconclusive: 2.24 µM [inhibitor, partial curve, poor fit] |  |
| Cn1c(-c2cccc(Br)c2)cnc1NCc1ccccc1O | inconclusive: 35.5 µM [inhibitor, single point] |  |
| CN1CCC(N2CCN(c3cccc(C(F)(F)F)c3)CC2)CC1 | inconclusive: 0.13 µM [inhibitor, full curve, poor fit] |  |
| O=[N+]([O-])c1ccc(Nc2ccc3ccccc3c2)nc1 |  | inactive: -21.2% |
| Clc1ccc2c(SCC3CO3)c3ccccc3nc2c1 (centres undefined) | inconclusive: 25.1 µM [inhibitor, partial curve, poor fit] |  |
| CCCCOc1ccc(C(=O)NCC(=O)NCC(c2ccc(OC)cc2)N2CCOCC2)cc1 (centres undefined) |  | inactive: -1.51% |
| CCCCNC(=S)N(C)/N=C/c1ccc(OCc2ccc(C(=O)OC)cc2)c(OC)c1 | inconclusive: 10 µM [inhibitor, partial curve, poor fit] |  |
| Cc1cc(C(=O)NCCc2ccc(S(N)(=O)=O)cc2)no1 |  | inactive: -13.5% |
| COc1ccc(OC)c(NC(=O)NNC(=O)COc2ccc(-c3ccccc3)cc2)c1 | inconclusive: 8.91 µM [inhibitor, partial curve, poor fit] |  |

| SMILES | Potency | activity change, negative = inhibition |
| --- | --- | --- |
| Cc1csc(SCC(=O)Nc2sccc2C#N)n1 | active: 4.47 µM |  |
| O=C1c2ccccc2C(=O)C1C(=O)C1CC1 |  | inactive: 2.92% [at 46.1 µM] |
| O=C1CC2(CCCCC2)Oc2ccc(O)cc21 |  | inactive: 0.0619% |
| Cc1ccccc1NC(=O)/C=C/c1ccc([N+](=O)[O-])s1 | inconclusive: 8.91 µM [inhibitor, partial curve, poor fit] |  |
| Cc1ccc2oc(-c3ccccc3)nc2c1 | inconclusive: 0.316 µM [activator, single point] |  |
| COC(=O)c1cc(NC(=O)CSC2=NCCS2)cc(C(=O)OC)c1 | inconclusive: 35.5 µM [inhibitor, single point] |  |
| Cc1ccc(OCCSc2nc3ccccc3n2CC(=O)N2CCOCC2)cc1 | inconclusive: 11.2 µM [inhibitor, partial curve, poor fit] |  |
| Cc1cnc(C(=O)NCC(=O)Nc2ccccc2Br)cn1 |  | inactive: 0.99% [at 46.1 µM] |
| Cc1cc(C2=NNC(=Nc3ccc(S(=O)(=O)N4CCOCC4)cc3)SC2)c(C)n1CC1CCCO1 (centres undefined) | inconclusive: 2.82 µM [inhibitor, full curve] |  |
| CSc1sc(C(=O)Nc2ccc(F)cc2F)c2c1C=CCC2 |  | inactive: -15.6% [at 46.1 µM] |
| CCOC(=O)Cc1csc(NC(=O)c2c(-c3ccccc3)noc2C)n1 |  | inactive: 7.02% |
| Cc1cc(N2CCOCC2)nc2ccc(NC(=O)CCC(=O)N3CCC4(CC3)OCCO4)cc12 | inconclusive: 11.2 µM [activator, partial curve] |  |
| CCCCn1nc(C(=O)N(C)CC(=O)Nc2cccc(F)c2)c2ccccc2c1=O |  | inactive: -8.6% |
| CN(C)CCSc1nc(-c2ccccc2)nc2c1COC(C)(C)C2 | inconclusive: 25.9 µM [inhibitor, partial curve] |  |
| O=C(c1ccco1)N1CCN(C(=S)Nc2ccccc2Cl)CC1 |  | inactive: -16% |
| CCN1C(=O)c2c(C)nc3ccccc3c2C1=O |  | inactive: 17.8% |
| CCN(CC)S(=O)(=O)c1cccc(C(=O)c2c(C)cc3ccccn23)c1 | inconclusive: 20.6 µM [inhibitor, partial curve, poor fit] |  |

Single values from the list.
Under activity change, negative = inhibition, O=C1c2ccccc2C(=O)C1C(=O)C1CC1 has the entry inactive: 2.92% [at 46.1 µM]
Under Potency, CN(C)CCSc1nc(-c2ccccc2)nc2c1COC(C)(C)C2 has the entry inconclusive: 25.9 µM [inhibitor, partial curve]
